Holding throughout (assay): EMSA
(In EMSA bound probe runs differently from free probe, usually more slowly.)

Amino acid sequences for entries named in this document (tags omitted). A change or cut given only in a name is not applied to a line headed by its entry.
UniProt Q8BG36: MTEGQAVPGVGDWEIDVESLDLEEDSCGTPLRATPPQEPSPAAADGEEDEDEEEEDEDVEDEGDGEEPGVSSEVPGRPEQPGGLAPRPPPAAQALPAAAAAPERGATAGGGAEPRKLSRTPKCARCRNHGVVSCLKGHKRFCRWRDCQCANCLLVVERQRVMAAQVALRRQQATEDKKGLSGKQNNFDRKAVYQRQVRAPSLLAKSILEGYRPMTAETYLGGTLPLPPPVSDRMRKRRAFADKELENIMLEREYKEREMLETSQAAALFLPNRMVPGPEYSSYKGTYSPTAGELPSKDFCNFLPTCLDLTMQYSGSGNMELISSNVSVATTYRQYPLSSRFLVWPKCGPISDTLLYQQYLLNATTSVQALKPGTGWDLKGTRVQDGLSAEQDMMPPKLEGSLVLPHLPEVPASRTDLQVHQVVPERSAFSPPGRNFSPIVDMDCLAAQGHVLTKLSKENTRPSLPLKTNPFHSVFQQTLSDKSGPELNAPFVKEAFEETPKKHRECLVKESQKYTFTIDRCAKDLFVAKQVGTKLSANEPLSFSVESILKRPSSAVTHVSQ

The target in data set [1] is T1, DMRT4 (mouse) (UniProt Q8CFG4).
T1 sequence (looked up, limits assumed): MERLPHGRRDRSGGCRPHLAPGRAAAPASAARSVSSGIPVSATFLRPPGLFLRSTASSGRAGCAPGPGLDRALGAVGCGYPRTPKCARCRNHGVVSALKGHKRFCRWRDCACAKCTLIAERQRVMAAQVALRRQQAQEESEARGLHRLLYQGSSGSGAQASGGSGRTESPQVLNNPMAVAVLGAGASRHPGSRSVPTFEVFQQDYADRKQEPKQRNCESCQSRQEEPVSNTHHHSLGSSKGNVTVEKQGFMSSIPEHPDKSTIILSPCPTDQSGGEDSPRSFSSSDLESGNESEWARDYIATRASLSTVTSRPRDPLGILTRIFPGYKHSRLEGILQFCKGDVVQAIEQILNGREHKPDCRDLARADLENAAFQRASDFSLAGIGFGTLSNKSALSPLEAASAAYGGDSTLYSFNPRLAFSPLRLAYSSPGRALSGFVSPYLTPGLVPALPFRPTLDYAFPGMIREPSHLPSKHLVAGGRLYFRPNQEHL
The conditions noted are these: weak shift; EMSA: 10 mM Tris-HCl pH 7.9, 100 mM KCl, 10% glycerol, 5 mM MgCl2, 1 mM spermidine, 0.075% Triton-X-100, 1 mM DTT, 1 ug BSA, 0.1 ug dI-dC, 75 ng plasmid DNA; protein translated in vitro; protein details: C-terminal Myc; label: 32P (Klenow fill-in).

In data set [2] the target is DMRT2 (mouse) (UniProt Q8BG36). As to conditions: much less efficient than DMRT1, 28-fold longer exposure; EMSA: 10 mM Tris-HCl pH 7.9, 100 mM KCl, 10% glycerol, 5 mM MgCl2, 1 mM spermidine, 0.075% Triton-X-100, 1 mM DTT, 1 ug BSA, 0.1 ug dI-dC, 75 ng plasmid DNA; protein translated in vitro; protein details: N-terminal Myc; label: 32P (Klenow fill-in).
For data set [3], the target named is T2, DMRT7 (mouse) (UniProt Q8CGW9).
T2 sequence (looked up, limits assumed): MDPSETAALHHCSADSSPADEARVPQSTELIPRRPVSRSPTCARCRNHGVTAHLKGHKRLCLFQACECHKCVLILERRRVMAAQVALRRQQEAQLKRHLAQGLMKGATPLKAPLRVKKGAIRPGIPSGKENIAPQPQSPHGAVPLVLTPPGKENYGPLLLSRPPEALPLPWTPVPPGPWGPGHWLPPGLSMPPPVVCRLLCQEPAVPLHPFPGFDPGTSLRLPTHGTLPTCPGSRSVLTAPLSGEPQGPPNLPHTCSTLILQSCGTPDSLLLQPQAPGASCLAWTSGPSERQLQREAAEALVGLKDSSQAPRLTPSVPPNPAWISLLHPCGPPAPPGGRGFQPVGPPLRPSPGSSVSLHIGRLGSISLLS
As to conditions: much less efficient than DMRT1, 28-fold longer exposure; EMSA: 10 mM Tris-HCl pH 7.9, 100 mM KCl, 10% glycerol, 5 mM MgCl2, 1 mM spermidine, 0.075% Triton-X-100, 1 mM DTT, 1 ug BSA, 0.1 ug dI-dC, 75 ng plasmid DNA; protein translated in vitro; protein details: N-terminal Myc; label: 32P (Klenow fill-in).

Data set [4] deals with T3, DMRT5 (mouse) (UniProt A2A9A2).
T3 sequence (looked up, limits assumed): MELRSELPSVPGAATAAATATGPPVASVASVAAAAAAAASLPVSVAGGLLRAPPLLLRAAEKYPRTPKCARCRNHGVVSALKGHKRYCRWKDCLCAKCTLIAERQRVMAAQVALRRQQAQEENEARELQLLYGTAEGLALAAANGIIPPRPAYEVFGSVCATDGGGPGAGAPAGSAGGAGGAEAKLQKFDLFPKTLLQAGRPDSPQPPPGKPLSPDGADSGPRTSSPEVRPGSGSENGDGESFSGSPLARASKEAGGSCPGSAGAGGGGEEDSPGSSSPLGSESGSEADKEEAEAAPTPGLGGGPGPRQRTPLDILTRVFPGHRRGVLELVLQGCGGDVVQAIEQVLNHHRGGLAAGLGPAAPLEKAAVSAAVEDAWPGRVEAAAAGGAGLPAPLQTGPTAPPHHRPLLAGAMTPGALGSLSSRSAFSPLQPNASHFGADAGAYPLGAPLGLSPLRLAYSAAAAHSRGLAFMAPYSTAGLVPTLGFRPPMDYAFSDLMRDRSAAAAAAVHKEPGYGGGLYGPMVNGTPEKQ
As to conditions: less efficient than DMRT1 site; EMSA: 10 mM Tris-HCl pH 7.9, 100 mM KCl, 10% glycerol, 5 mM MgCl2, 1 mM spermidine, 0.075% Triton-X-100, 1 mM DTT, 1 ug BSA, 0.1 ug dI-dC, 75 ng plasmid DNA; protein translated in vitro; protein details: N-terminal Myc; label: 32P (Klenow fill-in).

Construct, isoform or probe ends are uncertain for at least one entry. The comparison behind a weaker result is the experiment's own reference, which may not be listed here. For some assays here: Tags and fusion partners may be left off the protein sequences shown.

For “TCGAGAAAATGTAACAATTTAGCCGC / TCGAGCGGCTAAATTGTTACATTTTC [4RE]”, in data set [1], the binding result was “binds more weakly”. For the sequence “TCGAGCCCGCAACAATGTTGCAAATC / TCGAGATTTGCAACATTGTTGCGGGC [1RE (Figure 2)]”, the binding result in data set [2] and in data set [3] was “binds more weakly” each time. On to “TCGAGCGATACAATGTATCAATTTGC / TCGAGCAAATTGATACATTGTATCGC [2RE]”, for which the binding result in data set [2] is recorded as “binds more weakly”. Regarding “TCGAGCGCTACTGTTACATTGTCGCC / TCGAGGCGACAATGTAACAGTAGCGC [5RE]”, the binding result in data set [4] is on record as “binds more weakly”.
